Source: publication PMC7819943, “Rice protein-binding microarrays: a tool to detect cis-acting elements near promoter regions in rice”
The list shows a part of the results.

What follows are sequences tested against T1, OsSMF1 (Oryza sativa, UniProt Q6ZLB0 1-436) (assay: protein-binding microarray (RPBM); PBS, 2% BSA, 51.3 ng/ul salmon testes DNA, 50 uM zinc acetate, 200 nM TF, 25 C, 1 h; high values mean tight binding). Settings: protein: recombinant; tags: N-terminal polyhistidine and DsRed monomer fusion (pET32a); chain copies: 2; label: CyDye5-dUTP incorporated in the synthesized complementary strand; 3' TTTTT single-stranded linker to array surface; dsDNA, one strand shown.
T1 sequence: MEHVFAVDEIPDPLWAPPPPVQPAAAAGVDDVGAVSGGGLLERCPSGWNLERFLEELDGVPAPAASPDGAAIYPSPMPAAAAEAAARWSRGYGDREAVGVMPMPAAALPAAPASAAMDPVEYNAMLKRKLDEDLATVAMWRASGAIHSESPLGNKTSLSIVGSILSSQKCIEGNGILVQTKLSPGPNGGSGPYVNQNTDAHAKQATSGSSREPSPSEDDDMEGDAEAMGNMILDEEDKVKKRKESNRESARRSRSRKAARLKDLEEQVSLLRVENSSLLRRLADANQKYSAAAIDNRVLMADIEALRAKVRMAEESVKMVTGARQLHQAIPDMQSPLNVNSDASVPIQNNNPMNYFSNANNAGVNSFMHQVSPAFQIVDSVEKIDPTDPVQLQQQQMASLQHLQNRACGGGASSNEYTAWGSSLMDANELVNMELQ
Outline: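 The binding signal is fluorescence intensity per array feature (arbitrary units). Readings came from an Axon 4000B scanner after a washed, 2% BSA-blocked, double-stranded custom Agilent array had been incubated for 1 h at 25 °C with 200 nM protein and 50 µM zinc acetate. The protein was a Ni–NTA-purified transcription factor fused N-terminally to polyhistidine and DsRed, expressed in E. coli BL21-CodonPlus.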

Question: For “TGATCAAATCGCTCATAAAACATGTGCATCTTAGATTATACGGAGTCACCTAGTGCAG”, which binding signal is on record?
Answer: 3160 fluorescence intensity (a.u.)

Question: Which binding signal does the source give for “CTTCTCTTCTTCCCCACATCCAGTTCGATTCTCATCTCTCCGGAGTCACCTAGTGCAG” here?
Answer: 12600 fluorescence intensity (a.u.)

Question: For “ATTTATAAGCTCTCTACAAGATATCCATGTCAGCATATTTCGGAGTCACCTAGTGCAG”, which binding signal is on record?
Answer: 10300 fluorescence intensity (a.u.)

Question: For “AATTGGTGCTATCAAAATTTGCTTATGTTTTGGCATTGTCCGGAGTCACCTAGTGCAG”, which binding signal is on record?
Answer: 3480 fluorescence intensity (a.u.)

Question: For “TTGCCCTCGGAGACCGAGATGTCGTGGAGCCCCGCGACCGCGGAGTCACCTAGTGCAG”, which binding signal is on record?
Answer: 3480 fluorescence intensity (a.u.)

Question: For “CCGCCAACCCGCCTCCACGCCTACGGAGACTGCCACGCGGCGGAGTCACCTAGTGCAG”, which binding signal is on record?
Answer: 9410 fluorescence intensity (a.u.)

Question: “GCTAGCGTCGCCGTCGTGCGTGGCGTGACCCGTCAGCTGGCGGAGTCACCTAGTGCAG” was tested. Which binding signal did it give?
Answer: 9620 fluorescence intensity (a.u.)

Question: For “ATCGGACGATGAGAACAACACTGGTGAATCGCCAAGTACACGGAGTCACCTAGTGCAG”, which binding signal is on record?
Answer: 22300 fluorescence intensity (a.u.)

Question: How did the binding signal turn out when “CCGTAAATTAAGCCACGTTCTAGAGGCGCATAACGTCAAGCGGAGTCACCTAGTGCAG” was run?
Answer: 3870 fluorescence intensity (a.u.)

Question: Which binding signal does the source give for “CGACTACTTGGGCGGGAGGGAAGCCGAGTAGATCCTTTTACGGAGTCACCTAGTGCAG” here?
Answer: 4860 fluorescence intensity (a.u.)

Question: With “TATGTGACGCTCCACGCCGACACACATTTGCATTTGGCTCCGGAGTCACCTAGTGCAG” as the sequence, how does the binding signal read?
Answer: 3840 fluorescence intensity (a.u.)

Question: For “ATGCATATGCGAGGAATACAAGTATACAAGATGACAAGGACGGAGTCACCTAGTGCAG”, which binding signal is on record?
Answer: 3210 fluorescence intensity (a.u.)

Question: “ACCTATTATACACACATAACTTTTCAGCCACATCATCTTTCGGAGTCACCTAGTGCAG” was tested. Which binding signal did it give?
Answer: 6860 fluorescence intensity (a.u.)

Question: “AGCGATGAAGAGATCGGTCCCGATTTCTTGGCGGCGGTGGCGGAGTCACCTAGTGCAG” was tested. Which binding signal did it give?
Answer: 36000 fluorescence intensity (a.u.)

Question: How did the binding signal turn out when “TACAGCGTCATTGCAAGAATGGTGACGGGGTTTGAGGTTGCGGAGTCACCTAGTGCAG” was run?
Answer: 6110 fluorescence intensity (a.u.)

Question: How did the binding signal turn out when “CGGTACTAGTTACGTAGCCCAGCAACATGGCGCCATCCGTCGGAGTCACCTAGTGCAG” was run?
Answer: 4410 fluorescence intensity (a.u.)

Question: How did the binding signal turn out when “TTAAATGCACCCCTACTCAACCCCTCAATCGACGTGTTGGCGGAGTCACCTAGTGCAG” was run?
Answer: 4180 fluorescence intensity (a.u.)

Question: For “AGGAGGAGGAGGAGGCGGTGGCGGTGTTGCTGTCCGGTGACGGAGTCACCTAGTGCAG”, which binding signal is on record?
Answer: 3750 fluorescence intensity (a.u.)

Question: How did the binding signal turn out when “CACGTGTACAAGGGCAAAGCGCAACACCGACCCGAGTCCACGGAGTCACCTAGTGCAG” was run?
Answer: 39300 fluorescence intensity (a.u.)

Question: For “TGCAGCTGGTGCTGCTATTGATGTGCTGTTGTCGAGGCCGCGGAGTCACCTAGTGCAG”, which binding signal is on record?
Answer: 3460 fluorescence intensity (a.u.)

Question: Which binding signal does the source give for “GCATAGTCCTTCCTCCAAGACTCCAAATGATCCCTCTCAACGGAGTCACCTAGTGCAG” here?
Answer: 35600 fluorescence intensity (a.u.)

Question: “GTGCTGTAATCTCCGCTCTTTGCTCGCTGACTTGCATTATCGGAGTCACCTAGTGCAG” was tested. Which binding signal did it give?
Answer: 3800 fluorescence intensity (a.u.)

Question: Which binding signal does the source give for “CTCTGTACACGTGTAGAGAAAATTTATACTATGAATATTACGGAGTCACCTAGTGCAG” here?
Answer: 6500 fluorescence intensity (a.u.)

Question: Which binding signal does the source give for “CCGCCACCGCGCTCACTGACGTCGTGGCCCCACCGCCTCTCGGAGTCACCTAGTGCAG” here?
Answer: 5810 fluorescence intensity (a.u.)

Question: For “GTTCAAATTGGATCGTGACGAGGAAGCCTTTTGCCGTCGTCGGAGTCACCTAGTGCAG”, which binding signal is on record?
Answer: 4010 fluorescence intensity (a.u.)

Question: Which binding signal does the source give for “CCCCTTTCTCTCTCCTCGCATCGCCACCTCACCTCACCTCCGGAGTCACCTAGTGCAG” here?
Answer: 5990 fluorescence intensity (a.u.)

Question: With “CATACATGGAAAAGACAAATCGCCTGGTGCATGAGGCGCTCGGAGTCACCTAGTGCAG” as the sequence, how does the binding signal read?
Answer: 40600 fluorescence intensity (a.u.)

Question: How did the binding signal turn out when “TCTACTGATCCAATCGTGTCATCCAAGGGGTGGTAGCGATCGGAGTCACCTAGTGCAG” was run?
Answer: 4360 fluorescence intensity (a.u.)

Question: “CCCGCTTCTTCCCCGCTGCTTGAATCAGTCGTATCCTCACCGGAGTCACCTAGTGCAG” was tested. Which binding signal did it give?
Answer: 3470 fluorescence intensity (a.u.)

Question: Which binding signal does the source give for “TCAACTCCATCTGGTCATCAATCACTCTACCTTCATCTTCCGGAGTCACCTAGTGCAG” here?
Answer: 3250 fluorescence intensity (a.u.)

Question: With “GTTACATTTGGCGTACCACACAACTCACTGTCAGCCCCGTCGGAGTCACCTAGTGCAG” as the sequence, how does the binding signal read?
Answer: 3440 fluorescence intensity (a.u.)

Question: Which binding signal does the source give for “GGCATTTGGACTTGGCTGCTTTGCAGCATGACAGGGCAAACGGAGTCACCTAGTGCAG” here?
Answer: 7570 fluorescence intensity (a.u.)

Question: “CATATTTGTTTTAGGTGTCTAGCTTGGCTTGGTACGTGCTCGGAGTCACCTAGTGCAG” was tested. Which binding signal did it give?
Answer: 3200 fluorescence intensity (a.u.)

Question: Which binding signal does the source give for “CAGCTCCGCCCCGTCGCCGACGTGCTTCTCCATGTACCCGCGGAGTCACCTAGTGCAG” here?
Answer: 3800 fluorescence intensity (a.u.)

Question: “CCTAGTTCGGCTGGAGTTTCATCAAGGCTGACTGGACCACCGGAGTCACCTAGTGCAG” was tested. Which binding signal did it give?
Answer: 4900 fluorescence intensity (a.u.)

Question: For “TGTTTTGTCTGAATTTCTGAATGCAGCTGAGGCAGAAATCCGGAGTCACCTAGTGCAG”, which binding signal is on record?
Answer: 23800 fluorescence intensity (a.u.)

Question: “AAGCCGACGCACCAGGCTCTGGCTCGTCCCGGATAAGATACGGAGTCACCTAGTGCAG” was tested. Which binding signal did it give?
Answer: 3500 fluorescence intensity (a.u.)

Question: “AACAGCAGAAAGCAGGGAGCGGAAAGCCCACCACCTTCCTCGGAGTCACCTAGTGCAG” was tested. Which binding signal did it give?
Answer: 21300 fluorescence intensity (a.u.)

Question: With “TACTTTTGGTTATATATATCCTTCGTGGATGTAAAGATTGCGGAGTCACCTAGTGCAG” as the sequence, how does the binding signal read?
Answer: 3270 fluorescence intensity (a.u.)

Question: Which binding signal does the source give for “GGAGGAGAGACACAGGAGCAAACAATCAAGCGTGTCAGGTCGGAGTCACCTAGTGCAG” here?
Answer: 4030 fluorescence intensity (a.u.)

Question: How did the binding signal turn out when “GTCGCGCCACGCCTTGCAGACGCAGCGGCACGCCGCGAGCCGGAGTCACCTAGTGCAG” was run?
Answer: 4270 fluorescence intensity (a.u.)

Question: “ACTGCCTTACCTGTTCATCTTCCAAACTGATTTGGTTTGTCGGAGTCACCTAGTGCAG” was tested. Which binding signal did it give?
Answer: 3190 fluorescence intensity (a.u.)

Question: For “TTGGTGTACAACAGTAACAGGTCACTGCCACCCATTAGAACGGAGTCACCTAGTGCAG”, which binding signal is on record?
Answer: 3440 fluorescence intensity (a.u.)

Question: “TCAAAATGTATGATGTCATTGACTTTTCACGTAACGTTTGCGGAGTCACCTAGTGCAG” was tested. Which binding signal did it give?
Answer: 9940 fluorescence intensity (a.u.)

Question: With “GGGCCCCGGCCCCATCTGATATCTACGATGCAACGTACGACGGAGTCACCTAGTGCAG” as the sequence, how does the binding signal read?
Answer: 4190 fluorescence intensity (a.u.)

Question: How did the binding signal turn out when “TACCACACGTATCAAATCTAGTACCACCTACAATACCGTGCGGAGTCACCTAGTGCAG” was run?
Answer: 3360 fluorescence intensity (a.u.)

Question: With “GAATCTACATTAGTATGAGCGGTGTCAGGCGACACCAACGCGGAGTCACCTAGTGCAG” as the sequence, how does the binding signal read?
Answer: 3450 fluorescence intensity (a.u.)

Question: Which binding signal does the source give for “AACCGTGGTCCAAACAGGGCATATACGTGGATTTTGATACCGGAGTCACCTAGTGCAG” here?
Answer: 3660 fluorescence intensity (a.u.)

Question: How did the binding signal turn out when “TACAGGAGTCATGCAGTGCATGCACGCGAAGCTGTCGTCGCGGAGTCACCTAGTGCAG” was run?
Answer: 3250 fluorescence intensity (a.u.)

Question: Which binding signal does the source give for “CTTATCATTTGCAGAGTAAATGGCACATTAAATTCTTTGGCGGAGTCACCTAGTGCAG” here?
Answer: 22200 fluorescence intensity (a.u.)

Question: Which binding signal does the source give for “TTATGTGGTTGCATGCCAGATTTACGGTCAGCAGAAAGCTCGGAGTCACCTAGTGCAG” here?
Answer: 6140 fluorescence intensity (a.u.)

Question: Which binding signal does the source give for “GATTCAATCAAACAGTTATTCCTGTGTTTTGCAATTCTCTCGGAGTCACCTAGTGCAG” here?
Answer: 3610 fluorescence intensity (a.u.)

Question: Which binding signal does the source give for “CTCCCTCCCACCCGCCGCGTCGTCAGTTTTAACGCGCACCCGGAGTCACCTAGTGCAG” here?
Answer: 4540 fluorescence intensity (a.u.)

Question: With “CTCCTCTTTTCCTCCTGGTCTTCGTCTTCCTCAAGCCATGCGGAGTCACCTAGTGCAG” as the sequence, how does the binding signal read?
Answer: 3170 fluorescence intensity (a.u.)
